Results taken from article PMC4299599, “Quantification of cytosolic interactions identifies Ede1 oligomers as key organizers of endocytosis” (Molecular Systems Biology, 2014).
Results are given in words; binding and its absence hold for the method and conditions named.

How the values were obtained:
Assay in all cases: condition: 1000 nM (only Kdeff-values < 1000 nM are shown); fluorescence cross-correlation spectroscopy (FCCS); in the cytoplasm of living yeast cells; first-named protein green (3myeGFP or 1myeGFP; eGFP for Don1), second red (3mCherry); self-interaction in diploid strains with one allele of each colour; apparent or effective KD (Kdeff) from single-cell measurements; only Kdeff values < 1000 nM are shown; values for self-interactions are upper limits
End3 (S. cerevisiae) = biological target: T1, End3 (S. cerevisiae) (UniProt P39013)
T1 sequence: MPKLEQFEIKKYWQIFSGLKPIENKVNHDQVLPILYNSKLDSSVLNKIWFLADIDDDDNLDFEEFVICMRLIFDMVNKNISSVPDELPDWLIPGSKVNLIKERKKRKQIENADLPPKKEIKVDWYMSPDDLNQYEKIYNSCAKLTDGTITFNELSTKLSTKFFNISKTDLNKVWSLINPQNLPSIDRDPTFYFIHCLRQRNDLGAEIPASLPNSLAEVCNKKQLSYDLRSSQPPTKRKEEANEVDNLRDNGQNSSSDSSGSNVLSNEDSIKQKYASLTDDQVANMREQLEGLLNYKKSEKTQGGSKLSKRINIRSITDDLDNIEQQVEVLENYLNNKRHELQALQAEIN

Scd5 (S. cerevisiae) = biological target: T2, Scd5 (S. cerevisiae) (UniProt P34758)
T2 sequence: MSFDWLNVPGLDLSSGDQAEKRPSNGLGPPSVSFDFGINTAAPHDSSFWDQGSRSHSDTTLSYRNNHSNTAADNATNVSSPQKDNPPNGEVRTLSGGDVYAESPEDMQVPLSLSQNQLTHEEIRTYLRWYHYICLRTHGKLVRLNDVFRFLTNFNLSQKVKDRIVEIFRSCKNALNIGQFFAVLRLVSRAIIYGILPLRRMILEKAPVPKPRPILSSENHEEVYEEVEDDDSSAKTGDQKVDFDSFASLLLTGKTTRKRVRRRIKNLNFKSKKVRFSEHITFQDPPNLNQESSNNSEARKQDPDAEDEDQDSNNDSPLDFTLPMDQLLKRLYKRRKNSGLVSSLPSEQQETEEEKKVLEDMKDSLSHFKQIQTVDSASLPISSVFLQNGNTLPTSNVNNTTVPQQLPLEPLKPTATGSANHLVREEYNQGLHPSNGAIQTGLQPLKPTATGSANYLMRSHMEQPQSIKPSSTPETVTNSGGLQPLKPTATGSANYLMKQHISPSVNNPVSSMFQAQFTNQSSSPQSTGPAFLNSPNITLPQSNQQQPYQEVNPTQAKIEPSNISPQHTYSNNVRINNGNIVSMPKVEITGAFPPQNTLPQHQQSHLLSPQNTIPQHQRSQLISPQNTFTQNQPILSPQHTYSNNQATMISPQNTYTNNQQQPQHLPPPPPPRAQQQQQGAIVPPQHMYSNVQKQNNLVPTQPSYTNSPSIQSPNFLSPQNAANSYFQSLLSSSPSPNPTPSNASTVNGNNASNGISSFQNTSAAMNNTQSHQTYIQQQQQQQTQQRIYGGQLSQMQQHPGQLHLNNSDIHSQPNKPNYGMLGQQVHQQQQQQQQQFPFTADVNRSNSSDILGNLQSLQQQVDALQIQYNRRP

Sla1 = biological target: T3, Sla1 (S. cerevisiae, UniProt P32790 1-1244)
T3 construct: Sla1, S. cerevisiae; also called Sla1-3myeGFP; Sla1-3mCherry; source: chromosomally tagged at the endogenous locus, in the cytoplasm of living S. cerevisiae cells
T3 sequence (looked up): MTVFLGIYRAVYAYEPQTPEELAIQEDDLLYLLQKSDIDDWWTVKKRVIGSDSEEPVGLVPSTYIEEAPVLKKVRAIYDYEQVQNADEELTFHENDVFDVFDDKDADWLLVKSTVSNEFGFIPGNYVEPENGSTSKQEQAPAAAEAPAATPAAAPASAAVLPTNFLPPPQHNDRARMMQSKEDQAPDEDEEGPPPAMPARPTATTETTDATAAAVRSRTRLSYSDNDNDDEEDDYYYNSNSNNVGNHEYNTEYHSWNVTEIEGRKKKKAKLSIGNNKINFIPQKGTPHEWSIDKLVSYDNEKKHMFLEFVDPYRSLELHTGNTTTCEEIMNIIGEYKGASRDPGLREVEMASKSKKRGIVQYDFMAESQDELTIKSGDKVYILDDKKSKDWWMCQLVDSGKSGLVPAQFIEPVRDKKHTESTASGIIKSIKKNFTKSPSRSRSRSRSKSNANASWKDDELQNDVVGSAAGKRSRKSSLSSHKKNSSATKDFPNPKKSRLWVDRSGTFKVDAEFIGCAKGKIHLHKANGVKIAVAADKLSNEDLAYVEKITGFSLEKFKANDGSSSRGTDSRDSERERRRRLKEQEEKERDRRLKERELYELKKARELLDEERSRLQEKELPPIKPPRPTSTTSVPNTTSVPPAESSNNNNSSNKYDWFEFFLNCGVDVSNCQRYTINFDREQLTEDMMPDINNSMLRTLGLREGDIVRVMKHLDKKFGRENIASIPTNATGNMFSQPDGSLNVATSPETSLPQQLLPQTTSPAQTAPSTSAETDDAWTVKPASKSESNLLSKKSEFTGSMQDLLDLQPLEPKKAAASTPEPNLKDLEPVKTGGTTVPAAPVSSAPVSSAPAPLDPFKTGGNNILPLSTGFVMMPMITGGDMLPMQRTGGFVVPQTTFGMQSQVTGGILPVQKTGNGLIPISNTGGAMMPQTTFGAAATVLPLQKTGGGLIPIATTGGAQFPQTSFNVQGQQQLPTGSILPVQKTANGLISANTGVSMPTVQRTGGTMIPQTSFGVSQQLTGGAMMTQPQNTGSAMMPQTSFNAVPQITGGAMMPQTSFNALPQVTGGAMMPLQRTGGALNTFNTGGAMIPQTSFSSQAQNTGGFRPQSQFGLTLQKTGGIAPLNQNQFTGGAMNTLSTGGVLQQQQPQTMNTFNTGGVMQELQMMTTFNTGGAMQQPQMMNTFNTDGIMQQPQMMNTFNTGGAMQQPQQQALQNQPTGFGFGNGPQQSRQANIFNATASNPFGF

binding (End3 (S. cerevisiae)): no binding
binding (Scd5 (S. cerevisiae)): no binding
binding (Sla1): no binding
B1: Scd5 (protein, UniProt P34758 1-872)
chain: T2 sequence
